PubChem BioAssay AID1347076 (National Center for Advancing Translational Sciences (NCATS), 2019)
Hit rate of the full screen: of about 400,000 compounds, about 13,000 (3.2%) were called active. Inconclusive results, whose numbers are uncertain, are shown with a selection of clear calls. Calls come from the whole dose curve; as a rule, active = well fitted cell-killing curve with a large enough effect; inconclusive = small, poorly fitted or top-dose-only effect, or effect the other way; inactive = flat fitted curve, though single readings scatter. A potency beside an inconclusive call is a rough fit, not a confirmed value.

Experiment: qHTS assay for MDR1-selective chemotherapeutics: Primary screen using the drug-selected MDR subline cells KB-V1; note: nearly all actives have a fitted effect of over 60% in size
Settings: KB-V1 MDR cells viability, CellTiter-Glo, 72 h; activity change, negative = cytotoxicity: at 46.1 µM (top of the series)
Summary of the method: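 Cytotoxicity via CellTiter-Glo luminescence after 72 h compound exposure at 37 degrees C. Cells: drug-selected KB-V1 line, DMEM phenol-red free plus 10% FBS. Compounds tested at multiple concentrations; normalized data fitted to concentration-effect curves.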
% is set by controls: 0 for no effect and ±100 for the full control effect; potency is the fitted concentration of half-maximal effect.

SMILES	Potency	activity change, negative = cytotoxicity
NC(=O)C1CCN(CCCNC2CC(=O)N(Cc3ccc(N4CCCC4=O)cc3)C2=O)CC1 (stereo not given)	inconclusive: 14.6 µM [rising, partial curve, poor fit]	
CN(C)c1ccc(/C=C/c2nc3ccccc3s2)cc1Cl		inactive: 8.56%
C=CCc1ccc(OCCCN2CCCC(C)C2)c(OC)c1 (stereo not given)	inconclusive: 18.4 µM [cytotoxic, partial curve, poor fit]	
CCCCOC(=O)C1=C(C)Nc2ncnn2C1c1ccc(OC)c(OC)c1 (stereo not given)		inactive: 0%
CCn1ccnc1CN(C)Cc1nc(Cc2cccc(C(F)(F)F)c2)no1	inconclusive: 29.1 µM [cytotoxic, single point]	
COCc1c(C(=O)N2CCN(Cc3nc4ccccc4s3)CC2)oc2ccccc12	active: 23.1 µM	
COCCn1c(N)c(C(=O)NCC2CCCO2)c2nc3ccccc3nc21 (stereo not given)	inconclusive: 23.1 µM [cytotoxic, single point]	
CCOc1cc(CNCc2ccncc2)cc(Br)c1OCc1ccc(F)cc1	inconclusive: 7.31 µM [cytotoxic, partial curve]	
O=C(NC(c1ccc2ccccc2n1)c1cccs1)C1CCN(Cc2cccc(C(F)(F)F)c2)CC1 (stereo not given)	inconclusive: 29.1 µM [cytotoxic, single point]	
CCC(=O)N1c2ccccc2C(N(C(C)=O)c2ccccc2)CC1C (stereo not given)	inconclusive: 20.6 µM [cytotoxic, single point]	
CC(=O)C(=Cc1ccc(-c2ccccc2)cc1)C(=O)c1ccccc1	inconclusive: 20.6 µM [cytotoxic, single point]	
CN(CCOCCOc1ccc(F)cc1)Cc1ccccc1		inactive: -8.12%
COc1cc(C(=O)OCC(=O)Nc2cc(C)on2)c([N+](=O)[O-])cc1OC	inconclusive: 29.1 µM [rising, single point]	
O=C(c1ccc(S(=O)(=O)N2CCCC2)cc1)N1CCCc2ccccc21		inactive: -2.34%
CCOC(=O)c1[nH]c(C)c(C(=O)c2ccc(C)cc2)c1C	active: 1.46 µM	
CN1CCn2cnc(C(=O)N[C@@H](Cc3ccccc3)C(=O)OC(C)(C)C)c2C1=O		inactive: 0.728%
CCOc1ccc(C(=O)C[n+]2ccc(C(=O)NCCO)cc2)cc1	inconclusive: 5.17 µM [rising, partial curve]	
Cc1ccc(Cn2c(=O)n(Cc3ccccc3Cl)c(=O)c3cccnc32)cc1		inactive: -13.9%
CCN(CC)S(=O)(=O)c1ccc(C(=O)Nc2nnc(COC)o2)cc1		inactive: -18.7%
Cc1cccc(NC(=O)Nc2cccc(C#N)c2)n1	inconclusive: 29.1 µM [cytotoxic, single point]	
O=C1c2ccccc2C(=O)C1(CO)c1ccc(OC(F)F)cc1		inactive: -15.7%
CN(C)c1ccc(/C=C2/C=C(c3ccc4c(c3)CCCC4)OC2=O)cc1	inconclusive: 29.1 µM [rising, single point]	
COc1ccc2cc(CN(CC3CCCO3)C(=O)Nc3ccccc3OC)c(=O)[nH]c2c1 (stereo not given)	active: 11.6 µM	
COCC(N)(c1ccccc1)c1nc2ccccc2n1C (stereo not given)	inconclusive: 16.4 µM [cytotoxic, partial curve]	

SMILES	Potency	activity change, negative = cytotoxicity
O=C1CCC2=C1C(c1ccccc1Cl)N=C(Nc1nc3ccccc3o1)N2 (stereo not given)		inactive: 5.79%
Cc1ccccc1SCC(=O)Nc1cc(C(F)(F)F)ccc1N1CCOCC1	inconclusive: 9.2 µM [cytotoxic, partial curve]	
CCOc1ccc(-c2nnn(CC(=O)N3CCN(c4ccc(OC)cc4)CC3)n2)cc1OCC	inconclusive: 5.8 µM [cytotoxic, partial curve, poor fit]	
CCn1c(SCC(=O)NCc2ccccc2)nc2ccccc2c1=O	inconclusive: 29.1 µM [cytotoxic, single point]	
O=C(NCc1ccc(Cl)cc1)C1CCN(C(=O)c2ccc(Cl)cc2)CC1	inconclusive: 29.1 µM [cytotoxic, single point]	
CCOc1ccc(NC(=O)CN(C)C(=O)CSc2ccccc2)cc1OCC	inconclusive: 20.6 µM [cytotoxic, single point]	
O=C(COc1ccccc1C(=O)Nc1cccnc1)Nc1ccc(Br)cc1		inactive: 0%
COc1ccccc1-c1csc(C(C)(NC(C)=O)c2ccccc2)n1 (stereo not given)		inactive: -2.86%
O=C1NC2(CCCCCC2)C(=O)N1Cc1ccccc1F	inconclusive: 29.1 µM [rising, single point]	
Cc1cc(C(=O)N/N=C/c2cccc([N+](=O)[O-])c2)c2ccccc2n1		inactive: -18.7%
COc1ccc(CNC(=O)c2cccc(NC3=NC4CS(=O)(=O)CC4S3)c2)cc1 (stereo not given)	inconclusive: 5.17 µM [rising, partial curve, poor fit]	
Cn1cc([N+](=O)[O-])c(C(=O)Nc2ccc(Br)cn2)n1	inconclusive: 29.1 µM [cytotoxic, single point]	
COc1ccc(C(=O)N/N=C\C(C)=C\c2ccccc2)cc1OC	inconclusive: 25.9 µM [cytotoxic, partial curve, poor fit]	
CCc1ccc(C(=O)C(C)OC(=O)c2nc3nc(C)cc(C)n3n2)cc1 (stereo not given)		inactive: 0%
Cc1noc2ncnc(Sc3ccccc3Cl)c12	inconclusive: 29.1 µM [cytotoxic, single point]	
CC1=C(C(=O)N(C)Cc2ccccc2)C2(CCC(C)CC2)OC1=O (stereo not given)		inactive: 0.137%
CSCCC(NS(=O)(=O)c1ccc2c(c1)oc(=O)n2C)C(=O)NCc1cccs1 (stereo not given)		inactive: 9.05%
O=C(Nc1cccc(-n2cccn2)c1)C1CCCN(Cc2cccc(F)c2F)C1 (stereo not given)	inconclusive: 5.17 µM [cytotoxic, full curve]	
Cc1ccc(C(=O)c2c[nH]c3c(F)cc(F)cc3c2=O)cc1	inconclusive: 23.1 µM [cytotoxic, single point]	
Cc1ccc(-c2nnc3c4ccccc4c(C)nn23)cc1S(=O)(=O)N1CCN(C)CC1	inconclusive: 1.64 µM [cytotoxic, full curve]	
COc1cccc(OCC(O)CN2CCN(c3ccc(F)cc3)CC2)c1 (stereo not given)		inactive: 9.15%
CCCCn1c(N)c(N(CCC(C)C)C(=O)COC(=O)c2cccnc2OCC)c(=O)[nH]c1=O	inconclusive: 18.4 µM [rising, single point]	
Cc1ccc(CNC(=O)c2cccc(Nc3nc4ccccc4n4nnnc34)c2)cc1	inconclusive: 4.11 µM [cytotoxic, full curve, poor fit]	
CC(=O)Nc1cccc(C(=O)/C=C/c2ccco2)c1	inconclusive: 25.9 µM [cytotoxic, single point]	

SMILES	Potency	activity change, negative = cytotoxicity
CC(C)n1c(NCCc2ccccc2)nc2c1c(=O)n(C)c(=O)n2C	inconclusive: 9.2 µM [cytotoxic, partial curve, poor fit]	
CCOc1cccc(C(=O)Nc2cccc(NC(=O)c3ccco3)c2)c1	inconclusive: 5.17 µM [cytotoxic, full curve, poor fit]	
Cc1ccc(N2CCN(c3nc4ccccc4c4nnc(C)n34)CC2)c(C)c1	inconclusive: 32.6 µM [rising, single point]	
CC(O)[C@H]1CNC(=O)C(=O)N1CCc1cccc(F)c1 (stereo not given in full)	inconclusive: 6.51 µM [rising, single point]	
COC(=O)c1ccccc1NC(=O)Cn1c(=O)n(CCCCC(=O)NCc2ccc3c(c2)OCO3)c(=O)c2ccccc21		inactive: 27.6%
Cc1cc(C)n(-c2nc(SCCN(C)C)c3c4c(sc3n2)COC(C)(C)C4)n1	inconclusive: 11.2 µM [cytotoxic, partial curve, poor fit]	
O=S(=O)(c1ccccc1)N1CCCC1c1nc2ccccc2s1 (stereo not given)	inconclusive: 16.4 µM [cytotoxic, partial curve]	
COC(=O)N/N=C/c1cc(Cl)cc(Cl)c1OCc1ccc(F)cc1	active: 23.1 µM	
COC(=O)c1ccc(C2/C(=C(\O)c3ccc4c(c3)OCCO4)C(=O)C(=O)N2CCCN2CCOCC2)cc1 (stereo not given)	inconclusive: 29.1 µM [rising, single point]	
Cc1ccccc1Cn1c(C)c(C(=O)NCc2cccc(C(F)(F)F)c2)sc1=O	inconclusive: 10.3 µM [cytotoxic, partial curve]	
C/C(Cn1nnc([N+](=O)[O-])n1)=N\NC(=O)c1ccc(C)cc1	inconclusive: 29.1 µM [cytotoxic, single point]	
Cc1ccc(-c2n[nH]c(=S)c3ccccc23)cc1	inconclusive: 23.1 µM [cytotoxic, single point]	
Cc1cccc(OCC(O)Cn2c(NCc3cccnc3)nc3c2c(=O)[nH]c(=O)n3C)c1 (stereo not given)	inconclusive: 9.2 µM [rising, partial curve]	
O=C(/C=C/c1ccnc2ccccc12)c1cccs1	inconclusive: 32.6 µM [cytotoxic, single point]	
CCOC(=O)c1c(Nc2cccc(C)c2)nnc(-c2ccccc2)c1-c1ccccc1	inconclusive: 0.517 µM [rising, full curve]	
CN1CCN(c2ccc(CNC(=O)c3cc4ccccc4o3)cc2)CC1		inactive: -0.713%
O=C(COC(=O)CNC(=O)c1ccc(Cl)cc1Cl)NC1CCCCCCC1		inactive: 0%
Cn1nccc1C(=O)NC1CCN(Cc2ccccc2)CC1	inconclusive: 29.1 µM [rising, single point]	
Nc1nc(N)c(S(=O)(=O)c2ccccc2)c(Nc2ccc(F)cc2)n1		inactive: -28.1%
CC(C)CC(c1nnnn1C1CCCCC1)N1CCN(C(=O)c2ccco2)CC1 (stereo not given)	inconclusive: 1.64 µM [cytotoxic, full curve]	
Cc1c(C(=O)N2CCOCC2)sc(NC(=O)c2ccc([N+](=O)[O-])cc2)c1C#N	inconclusive: 25.9 µM [cytotoxic, single point]	
COc1cc(-c2ccno2)ccc1S(=O)(=O)N1CCN(c2ccc(F)cc2)CC1	inconclusive: 0.206 µM [cytotoxic, full curve, poor fit]	

Compounds from the list above that contain a nitro group on carbon (five):
SMILES	Potency	activity change, negative = cytotoxicity
COc1cc(C(=O)OCC(=O)Nc2cc(C)on2)c([N+](=O)[O-])cc1OC	inconclusive: 29.1 µM [rising, single point]	
Cc1cc(C(=O)N/N=C/c2cccc([N+](=O)[O-])c2)c2ccccc2n1		inactive: -18.7%
Cn1cc([N+](=O)[O-])c(C(=O)Nc2ccc(Br)cn2)n1	inconclusive: 29.1 µM [cytotoxic, single point]	
C/C(Cn1nnc([N+](=O)[O-])n1)=N\NC(=O)c1ccc(C)cc1	inconclusive: 29.1 µM [cytotoxic, single point]	
Cc1c(C(=O)N2CCOCC2)sc(NC(=O)c2ccc([N+](=O)[O-])cc2)c1C#N	inconclusive: 25.9 µM [cytotoxic, single point]	
